Results taken from article PMC12504418.
These are yes or no findings as the source states them, for the method shown. In cells and extracts the contact can be indirect. Some entries that bind do so weakly or less than the wild type. For some of these results: Tags and fused reporters may be left off the sequences shown.

By UniProt entry, the sequences of proteins in these tests, tags left out. Residues count along the entry.
UniProt P07333, residues 20-972: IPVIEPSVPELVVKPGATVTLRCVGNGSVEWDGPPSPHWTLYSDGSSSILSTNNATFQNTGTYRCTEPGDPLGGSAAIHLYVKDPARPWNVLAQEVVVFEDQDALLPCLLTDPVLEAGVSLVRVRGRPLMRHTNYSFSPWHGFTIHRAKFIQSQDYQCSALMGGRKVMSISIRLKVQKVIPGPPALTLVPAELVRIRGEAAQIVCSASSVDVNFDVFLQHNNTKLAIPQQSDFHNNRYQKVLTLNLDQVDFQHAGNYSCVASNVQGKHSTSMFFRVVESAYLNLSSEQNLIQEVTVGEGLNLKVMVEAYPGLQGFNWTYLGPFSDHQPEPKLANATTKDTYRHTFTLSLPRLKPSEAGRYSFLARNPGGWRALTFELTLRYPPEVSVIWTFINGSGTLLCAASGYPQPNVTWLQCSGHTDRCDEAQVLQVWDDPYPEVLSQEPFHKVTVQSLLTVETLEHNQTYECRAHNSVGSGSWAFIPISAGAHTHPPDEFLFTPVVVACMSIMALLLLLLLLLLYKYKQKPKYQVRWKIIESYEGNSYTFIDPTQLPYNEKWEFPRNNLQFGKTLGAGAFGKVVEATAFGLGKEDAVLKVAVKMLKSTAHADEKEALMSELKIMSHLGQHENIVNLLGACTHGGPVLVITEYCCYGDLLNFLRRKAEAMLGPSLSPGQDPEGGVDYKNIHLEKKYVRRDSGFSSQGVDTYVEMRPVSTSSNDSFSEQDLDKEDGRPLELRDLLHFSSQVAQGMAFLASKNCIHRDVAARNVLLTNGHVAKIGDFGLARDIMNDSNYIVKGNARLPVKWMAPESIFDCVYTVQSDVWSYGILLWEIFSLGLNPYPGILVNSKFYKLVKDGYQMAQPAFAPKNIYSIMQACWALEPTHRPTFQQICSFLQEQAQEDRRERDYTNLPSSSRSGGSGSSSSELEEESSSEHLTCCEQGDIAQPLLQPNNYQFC
UniProt Q3TTA7: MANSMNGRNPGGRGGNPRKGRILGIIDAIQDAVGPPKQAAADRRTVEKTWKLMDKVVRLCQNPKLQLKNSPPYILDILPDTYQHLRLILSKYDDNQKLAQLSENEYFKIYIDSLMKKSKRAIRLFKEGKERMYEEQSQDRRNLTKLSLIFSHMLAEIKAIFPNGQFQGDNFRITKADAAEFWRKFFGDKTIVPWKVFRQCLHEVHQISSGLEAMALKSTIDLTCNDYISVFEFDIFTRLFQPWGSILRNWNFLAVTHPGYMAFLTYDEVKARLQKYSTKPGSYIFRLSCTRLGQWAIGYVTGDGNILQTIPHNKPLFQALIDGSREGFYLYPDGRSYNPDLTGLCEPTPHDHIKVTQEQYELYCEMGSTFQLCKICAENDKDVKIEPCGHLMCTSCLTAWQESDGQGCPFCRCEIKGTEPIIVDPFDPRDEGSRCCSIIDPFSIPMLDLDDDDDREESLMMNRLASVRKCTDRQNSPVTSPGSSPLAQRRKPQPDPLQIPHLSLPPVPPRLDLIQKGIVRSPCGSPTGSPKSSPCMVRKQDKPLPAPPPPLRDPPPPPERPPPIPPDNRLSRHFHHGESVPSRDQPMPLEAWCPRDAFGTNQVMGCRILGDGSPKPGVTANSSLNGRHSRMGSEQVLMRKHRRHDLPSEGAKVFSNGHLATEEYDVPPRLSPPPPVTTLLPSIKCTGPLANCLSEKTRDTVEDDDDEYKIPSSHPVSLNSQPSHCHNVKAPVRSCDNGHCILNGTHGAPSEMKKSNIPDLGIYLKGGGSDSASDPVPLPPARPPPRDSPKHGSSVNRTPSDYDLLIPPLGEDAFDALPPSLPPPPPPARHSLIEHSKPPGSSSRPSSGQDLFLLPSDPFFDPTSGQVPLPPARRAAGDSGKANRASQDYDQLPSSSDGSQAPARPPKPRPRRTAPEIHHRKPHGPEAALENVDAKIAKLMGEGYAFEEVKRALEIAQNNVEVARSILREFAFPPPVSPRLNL
UniProt Q13191: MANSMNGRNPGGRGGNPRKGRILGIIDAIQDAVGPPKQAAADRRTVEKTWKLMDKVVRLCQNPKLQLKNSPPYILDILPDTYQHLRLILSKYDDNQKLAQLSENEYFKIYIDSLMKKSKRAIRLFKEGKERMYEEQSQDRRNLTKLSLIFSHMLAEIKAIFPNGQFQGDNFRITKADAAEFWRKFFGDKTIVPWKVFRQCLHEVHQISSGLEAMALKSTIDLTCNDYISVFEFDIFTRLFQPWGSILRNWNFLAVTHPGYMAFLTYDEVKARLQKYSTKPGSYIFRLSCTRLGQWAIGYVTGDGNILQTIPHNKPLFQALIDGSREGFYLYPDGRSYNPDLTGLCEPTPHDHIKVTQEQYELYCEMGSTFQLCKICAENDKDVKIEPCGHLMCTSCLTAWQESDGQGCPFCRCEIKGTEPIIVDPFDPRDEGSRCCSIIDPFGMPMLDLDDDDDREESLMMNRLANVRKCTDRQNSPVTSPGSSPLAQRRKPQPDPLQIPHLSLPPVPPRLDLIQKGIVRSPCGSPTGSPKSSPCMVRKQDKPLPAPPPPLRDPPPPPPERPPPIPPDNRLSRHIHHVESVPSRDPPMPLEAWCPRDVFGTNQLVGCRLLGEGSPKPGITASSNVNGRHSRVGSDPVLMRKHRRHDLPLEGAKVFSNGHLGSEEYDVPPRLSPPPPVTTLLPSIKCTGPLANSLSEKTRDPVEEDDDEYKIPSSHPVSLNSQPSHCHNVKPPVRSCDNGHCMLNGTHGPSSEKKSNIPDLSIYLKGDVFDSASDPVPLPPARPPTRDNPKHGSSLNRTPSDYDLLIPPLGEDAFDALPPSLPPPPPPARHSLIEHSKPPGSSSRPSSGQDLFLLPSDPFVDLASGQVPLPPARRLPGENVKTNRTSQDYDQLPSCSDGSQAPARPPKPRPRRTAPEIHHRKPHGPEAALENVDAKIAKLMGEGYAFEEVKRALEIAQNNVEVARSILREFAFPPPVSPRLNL

Key:
[1] = biological target: T1, His-M-CSFR (macrophage colony-stimulating factor receptor) (mouse) (UniProt P09581); assay: co-IP; HEK293T cells co-expressing His-M-CSFR and Myc-Cbl-b or Myc-c-Cbl; NP-40 lysis buffer, antibody overnight at 4 °C, Protein G-agarose, washes with NP-40 wash buffer and High Salt buffer; western blot
T1 sequence: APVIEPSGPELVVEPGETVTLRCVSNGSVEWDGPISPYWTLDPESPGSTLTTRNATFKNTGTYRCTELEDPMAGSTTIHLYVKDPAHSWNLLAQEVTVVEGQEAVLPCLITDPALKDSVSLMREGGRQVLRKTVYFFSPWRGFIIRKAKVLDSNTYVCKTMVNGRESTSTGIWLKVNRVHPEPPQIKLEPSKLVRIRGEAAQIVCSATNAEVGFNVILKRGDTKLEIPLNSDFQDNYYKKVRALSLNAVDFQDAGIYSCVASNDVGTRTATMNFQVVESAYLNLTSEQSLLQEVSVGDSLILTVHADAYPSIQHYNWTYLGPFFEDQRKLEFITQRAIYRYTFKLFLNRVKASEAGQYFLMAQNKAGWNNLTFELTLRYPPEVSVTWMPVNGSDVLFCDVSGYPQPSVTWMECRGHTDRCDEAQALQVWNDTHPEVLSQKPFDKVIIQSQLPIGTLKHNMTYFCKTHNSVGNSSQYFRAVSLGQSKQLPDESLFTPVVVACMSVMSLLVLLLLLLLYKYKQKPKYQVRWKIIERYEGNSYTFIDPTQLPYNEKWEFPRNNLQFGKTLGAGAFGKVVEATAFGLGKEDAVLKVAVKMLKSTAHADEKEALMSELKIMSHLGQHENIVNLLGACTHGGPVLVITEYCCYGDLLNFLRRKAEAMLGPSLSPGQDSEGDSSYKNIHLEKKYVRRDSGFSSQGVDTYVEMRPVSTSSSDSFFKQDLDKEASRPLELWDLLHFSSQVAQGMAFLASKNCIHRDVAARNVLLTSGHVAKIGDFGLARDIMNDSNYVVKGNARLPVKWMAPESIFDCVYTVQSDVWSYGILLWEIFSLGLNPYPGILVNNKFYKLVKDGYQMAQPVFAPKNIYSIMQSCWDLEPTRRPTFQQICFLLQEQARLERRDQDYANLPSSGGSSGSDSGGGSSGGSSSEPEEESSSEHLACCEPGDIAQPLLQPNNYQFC

[2] = biological target: endogenous M-CSFR (human) (human (endogenous in THP-1)) (UniProt P07333); assay: co-IP; endogenous proteins in PMA-stimulated THP-1 cells after stimulation with M-CSF; NP-40 lysis buffer, Protein G-agarose; western blot
[3] = biological target: T2, endogenous M-CSFR (mouse) (mouse (endogenous in MH-S and BMDMs)) (UniProt P09581); assay: co-IP; endogenous proteins in MH-S cells after stimulation with M-CSF; NP-40 lysis buffer, Protein G-agarose; western blot
T2 sequence: T1 sequence

[4] = biological target: T2, endogenous M-CSFR (mouse) (mouse (endogenous in MH-S and BMDMs)); assay: co-IP; endogenous proteins in WT BMDMs starved of M-CSF for 24 h and restimulated with M-CSF (50 ng/mL); NP-40 lysis buffer, Protein G-agarose; western blot

Row | binding [1] | binding [2] | binding [3] | binding [4] | Substance
1 | binds |  |  |  | Myc-Cbl-b (from UniProt Q3TTA7 1-982) (enzyme)
2 | binds |  |  |  | Myc-c-Cbl (from UniProt P22682 1-913) (enzyme)
3 |  | binds |  |  | endogenous Cbl-b (human) (from UniProt Q13191 1-982) (enzyme)
4 |  |  | binds | binds | endogenous Cbl-b (mouse) (from UniProt Q3TTA7 1-982) (enzyme)
5 |  |  | binds | binds | endogenous c-Cbl (mouse) (from UniProt P22682 1-913) (enzyme)
